# Laboratory results as given in patent publication US8193224B2, “Medicinal composition for prevention or treatment of parasitic protozoan infection” (Fujifilm Corporation, priority 2004, dated 2012).
# System: Trypanosoma cruzi (Tulahuen C2C4 strain)
# Test: American trypanosome protozoa growth inhibition screening test
# Assay type: cell-based
# Conditions: chemotherapy index = EC50 rat L6 cells / EC50 American trypanosome protozoa
# Description: In the present example, amastigote and trypomastigote infected with rat L6 cells of protozoa of Trypanosoma cruzi (Tulahuen C2C4 strain) were used. As medium used in the test, RPMI 1640 medium containing L6 cells was supplemented so that L-glutamine (200 mM) becomes 1%, fetal bovine serum becomes 10%, which was cultured under CO2 concentration 5%, at 37° C.
# The compounds of the present invention to be used in the test and the positive target agent (benznidazole) were dissolved in DMSO to make a test solution of a predetermined concentration. A medium containing 5×10^3 protozoa was added to wells of a 96-well culture plate, and pre-cultured for 48 hours. After replacing the medium, test solution containing drug of a predetermined concentration or a drug-free DMSO was added. Test solutions were taken by duplicates. After culturing the culture plate in an incubator for 96 hours, growth inhibition activity was tested. Test was conducted as follows.
# 50 μL of CPRG/Nonidet was added to each well, and allowed to rest for 2 to 6 hours. Next, the culture plate was placed on a fluorescent micro-plate reader, and the absorbance was measured at 540 nm. Growth inhibition rate was calculated with the following formula based on the protozoan infection rate which was obtained by calculating trypanosome infection rate of the test solution added group and control group, to obtain a 50% growth inhibition concentration (EC50). Growth inhibition rate (%)={1−(b−a)/(c−a)}×100 a: early infection rate b: infection rate when test solution was added c: infection rate of the control
row,Compound,Selective toxicity
1,CCn1c(=Cc2sc3c4ccccc4ccc3[n+]2CC)sc(=CC=C2SCCN2C)c1=O [A-9],2.0
2,CCn1c(=Cc2cc[n+](CC)c3ccccc23)sc(=CC=C2C=Cc3ccccc3N2C)c1=O [A-14],7.6
3,CCn1c(=Cc2oc3ccccc3[n+]2CC)sc(=CC=C2N(C)c3ccccc3C2(C)C)c1=O [A-8],1.8
